For 1 substance, binding results are on record in publication doi:10.1101/2024.05.31.595485.

Protein sequences, listed by entry. Tags and fused reporters are not part of them.
UniProt Q9CW03: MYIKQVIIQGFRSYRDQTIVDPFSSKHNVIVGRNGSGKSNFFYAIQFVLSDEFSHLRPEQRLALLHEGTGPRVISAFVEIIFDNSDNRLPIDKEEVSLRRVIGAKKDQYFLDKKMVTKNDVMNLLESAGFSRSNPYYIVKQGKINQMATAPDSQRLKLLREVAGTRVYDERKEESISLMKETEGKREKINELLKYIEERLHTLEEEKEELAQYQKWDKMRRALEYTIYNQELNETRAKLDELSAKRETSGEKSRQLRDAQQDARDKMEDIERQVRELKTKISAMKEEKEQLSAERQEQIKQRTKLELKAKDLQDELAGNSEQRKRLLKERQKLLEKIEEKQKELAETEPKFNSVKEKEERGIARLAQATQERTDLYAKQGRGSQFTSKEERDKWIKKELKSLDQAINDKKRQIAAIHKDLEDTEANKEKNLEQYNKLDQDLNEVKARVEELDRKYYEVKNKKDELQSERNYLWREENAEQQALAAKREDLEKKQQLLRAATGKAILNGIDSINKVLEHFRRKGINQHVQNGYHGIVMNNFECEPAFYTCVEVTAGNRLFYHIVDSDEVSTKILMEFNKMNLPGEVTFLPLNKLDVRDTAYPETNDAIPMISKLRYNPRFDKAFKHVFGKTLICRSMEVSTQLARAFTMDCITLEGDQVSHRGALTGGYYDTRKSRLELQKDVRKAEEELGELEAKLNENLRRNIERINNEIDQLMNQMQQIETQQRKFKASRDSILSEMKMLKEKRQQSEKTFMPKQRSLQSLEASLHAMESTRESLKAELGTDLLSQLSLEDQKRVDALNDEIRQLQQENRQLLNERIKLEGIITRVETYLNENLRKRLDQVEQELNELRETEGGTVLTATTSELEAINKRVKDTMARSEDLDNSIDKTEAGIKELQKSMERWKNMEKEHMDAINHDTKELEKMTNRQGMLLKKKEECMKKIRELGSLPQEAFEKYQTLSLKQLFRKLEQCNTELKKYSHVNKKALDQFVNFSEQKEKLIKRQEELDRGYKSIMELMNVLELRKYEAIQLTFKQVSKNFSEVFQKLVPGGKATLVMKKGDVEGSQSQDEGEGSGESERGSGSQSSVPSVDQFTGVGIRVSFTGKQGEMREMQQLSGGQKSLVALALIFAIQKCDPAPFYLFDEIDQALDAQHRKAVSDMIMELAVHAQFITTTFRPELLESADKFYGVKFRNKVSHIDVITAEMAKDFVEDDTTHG

These are yes or no findings as the source states them, for the method shown. Binding seen in cells or lysates may run through a third protein. Some binding calls cover weakened binding; strength is not graded here. Tags and fused reporters may be left off the sequences shown.

For the assay, the target named is T1, STAG3 (endogenous, chromatin-bound) (mouse (endogenous in mESCs)) (UniProt O70576).
T1 sequence: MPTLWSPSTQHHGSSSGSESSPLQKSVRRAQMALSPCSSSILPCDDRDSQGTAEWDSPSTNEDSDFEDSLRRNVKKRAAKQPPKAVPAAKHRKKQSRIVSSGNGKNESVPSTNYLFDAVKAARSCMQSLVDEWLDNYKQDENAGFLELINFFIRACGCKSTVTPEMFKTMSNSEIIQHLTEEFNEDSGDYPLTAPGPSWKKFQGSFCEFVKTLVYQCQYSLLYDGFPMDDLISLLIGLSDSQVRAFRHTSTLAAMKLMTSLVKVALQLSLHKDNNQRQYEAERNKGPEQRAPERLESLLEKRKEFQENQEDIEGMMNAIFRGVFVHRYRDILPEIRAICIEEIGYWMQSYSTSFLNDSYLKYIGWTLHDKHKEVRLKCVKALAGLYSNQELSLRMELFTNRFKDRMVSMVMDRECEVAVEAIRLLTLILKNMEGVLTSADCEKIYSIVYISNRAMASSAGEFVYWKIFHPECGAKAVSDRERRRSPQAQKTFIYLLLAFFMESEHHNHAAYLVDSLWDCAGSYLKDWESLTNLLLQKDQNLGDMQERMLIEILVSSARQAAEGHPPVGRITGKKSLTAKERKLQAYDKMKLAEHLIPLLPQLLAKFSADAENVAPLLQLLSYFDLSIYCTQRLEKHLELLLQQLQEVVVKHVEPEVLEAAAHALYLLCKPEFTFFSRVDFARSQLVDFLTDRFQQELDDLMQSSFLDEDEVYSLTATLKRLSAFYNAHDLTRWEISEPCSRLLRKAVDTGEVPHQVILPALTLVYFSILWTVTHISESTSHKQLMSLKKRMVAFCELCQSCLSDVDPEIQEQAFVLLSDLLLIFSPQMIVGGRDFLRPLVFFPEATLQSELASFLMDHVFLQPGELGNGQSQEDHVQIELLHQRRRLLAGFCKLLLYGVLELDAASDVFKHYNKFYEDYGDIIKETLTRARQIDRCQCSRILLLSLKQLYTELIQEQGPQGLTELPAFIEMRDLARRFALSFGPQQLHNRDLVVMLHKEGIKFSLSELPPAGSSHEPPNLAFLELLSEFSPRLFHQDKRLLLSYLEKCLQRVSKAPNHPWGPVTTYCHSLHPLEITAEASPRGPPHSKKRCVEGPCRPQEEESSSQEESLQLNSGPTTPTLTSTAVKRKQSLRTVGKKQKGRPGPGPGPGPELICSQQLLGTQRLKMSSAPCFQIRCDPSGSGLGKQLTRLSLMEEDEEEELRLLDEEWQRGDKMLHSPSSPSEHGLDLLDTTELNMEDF
In words: co-IP.

Consider SMC3 (from UniProt Q9CW03 1-1217), for which the binding entry was “binds”.
